Measured values taken from publication PMC12382473, “Retinoid X receptor γ interacts with peroxisome proliferator-activated receptor-γ to promote browning during adipose tissue differentiation” (Adipocyte, 2025).
No constants are given. Whether binding was seen depends on the method and setting. In cells and extracts the contact can be indirect. Some binding calls cover weakened binding; strength is not graded here. Tags and fused reporters may be left off the sequences shown.

By UniProt entry, the sequences of proteins in these tests, tags left out.
UniProt Q15208: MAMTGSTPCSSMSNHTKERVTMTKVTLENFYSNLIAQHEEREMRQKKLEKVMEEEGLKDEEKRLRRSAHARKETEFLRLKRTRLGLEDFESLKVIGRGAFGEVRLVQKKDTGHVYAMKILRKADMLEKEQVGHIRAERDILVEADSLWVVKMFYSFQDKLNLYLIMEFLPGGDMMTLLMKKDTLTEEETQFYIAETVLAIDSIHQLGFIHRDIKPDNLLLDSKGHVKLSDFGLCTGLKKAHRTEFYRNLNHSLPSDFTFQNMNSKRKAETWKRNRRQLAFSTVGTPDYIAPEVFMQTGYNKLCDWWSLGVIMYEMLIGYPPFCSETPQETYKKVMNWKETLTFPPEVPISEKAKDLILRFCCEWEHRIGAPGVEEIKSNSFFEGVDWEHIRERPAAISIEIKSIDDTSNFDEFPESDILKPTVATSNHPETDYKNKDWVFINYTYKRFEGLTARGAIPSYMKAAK
UniProt Q9Y2H1: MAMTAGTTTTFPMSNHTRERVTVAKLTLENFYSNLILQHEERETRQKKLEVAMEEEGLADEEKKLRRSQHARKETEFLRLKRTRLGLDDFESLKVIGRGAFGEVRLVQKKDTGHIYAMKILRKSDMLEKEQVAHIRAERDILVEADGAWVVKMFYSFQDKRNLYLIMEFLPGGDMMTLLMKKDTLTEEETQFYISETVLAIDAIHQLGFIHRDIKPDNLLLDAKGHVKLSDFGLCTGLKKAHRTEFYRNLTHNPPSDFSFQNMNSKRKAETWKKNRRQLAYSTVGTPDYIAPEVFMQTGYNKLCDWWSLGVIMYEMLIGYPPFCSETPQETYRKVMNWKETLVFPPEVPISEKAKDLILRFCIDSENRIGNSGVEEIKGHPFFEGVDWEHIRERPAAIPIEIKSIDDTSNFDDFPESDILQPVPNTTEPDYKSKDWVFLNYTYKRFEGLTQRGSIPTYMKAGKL

T1: Flag-PPARγ, transfected in HEK293 cells (UniProt P37231 1-505)
T1 sequence (looked up): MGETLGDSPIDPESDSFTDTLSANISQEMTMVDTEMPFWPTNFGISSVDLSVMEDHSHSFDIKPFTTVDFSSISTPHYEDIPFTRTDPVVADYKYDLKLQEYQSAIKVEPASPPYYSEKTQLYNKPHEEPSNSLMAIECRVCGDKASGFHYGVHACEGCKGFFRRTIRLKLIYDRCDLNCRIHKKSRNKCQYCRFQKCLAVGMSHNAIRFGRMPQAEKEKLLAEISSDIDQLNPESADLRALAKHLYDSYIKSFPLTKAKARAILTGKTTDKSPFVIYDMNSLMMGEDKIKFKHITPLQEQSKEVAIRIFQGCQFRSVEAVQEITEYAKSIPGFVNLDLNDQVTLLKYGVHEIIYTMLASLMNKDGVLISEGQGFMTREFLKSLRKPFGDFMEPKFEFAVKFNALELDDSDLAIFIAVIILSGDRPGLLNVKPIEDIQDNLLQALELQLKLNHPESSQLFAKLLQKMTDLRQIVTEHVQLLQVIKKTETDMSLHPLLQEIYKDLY

B1: Myc-RXRγ (retinoid X receptor γ), transfected in HEK293 cells (natural protein, UniProt P48443 1-463, looked up)
chain: MYGNYSHFMKFPAGYGGSPGHTGSTSMSPSAALSTGKPMDSHPSYTDTPVSAPRTLSAVGTPLNALGSPYRVITSAMGPPSGALAAPPGINLVAPPSSQLNVVNSVSSSEDIKPLPGLPGIGNMNYPSTSPGSLVKHICAICGDRSSGKHYGVYSCEGCKGFFKRTIRKDLIYTCRDNKDCLIDKRQRNRCQYCRYQKCLVMGMKREAVQEERQRSRERAESEAECATSGHEDMPVERILEAELAVEPKTESYGDMNMENSTNDPVTNICHAADKQLFTLVEWAKRIPHFSDLTLEDQVILLRAGWNELLIASFSHRSVSVQDGILLATGLHVHRSSAHSAGVGSIFDRVLTELVSKMKDMQMDKSELGCLRAIVLFNPDAKGLSNPSEVETLREKVYATLEAYTKQKYPEQPGRFAKLLLRLPALRSIGLKCLEHLFFFKLIGDTPIDTFLMEMLETPLQIT
B2: Myc-HNF4α, transfected in HEK293 cells (protein, UniProt P41235 1-474)
chain: MRLSKTLVDMDMADYSAALDPAYTTLEFENVQVLTMGNDTSPSEGTNLNAPNSLGVSALCAICGDRATGKHYGASSCDGCKGFFRRSVRKNHMYSCRFSRQCVVDKDKRNQCRYCRLKKCFRAGMKKEAVQNERDRISTRRSSYEDSSLPSINALLQAEVLSRQITSPVSGINGDIRAKKIASIADVCESMKEQLLVLVEWAKYIPAFCELPLDDQVALLRAHAGEHLLLGATKRSMVFKDVLLLGNDYIVPRHCPELAEMSRVSIRILDELVLPFQELQIDDNEYAYLKAIIFFDPDAKGLSDPGKIKRLRSQVQVSLEDYINDRQYDSRGRFGELLLLLPTLQSITWQMIEQIQFIKLFGMAKIDNLLQEMLLGGSPSDAPHAHHPLHPHLMQEHMGTNVIVANTMPTHLSNGQMCEWPRPRGQAATPETPQPSPPGGSGSEPYKLLPGAVATIVKPLSAIPQPTITKQEVI

Each molecule was assayed against T1, Flag-PPARγ, transfected in HEK293 cells (assay: co-IP; HEK293 cells (methods: HEK-293T) co-transfected with Flag- and Myc-tagged proteins; lysed in RIPA buffer 48 h after transfection; anti-Flag beads overnight at 4°C; Western blot with anti-Flag and anti-Myc).

binding | Molecule
binds | Myc-STK38, transfected in HEK293 cells (from UniProt Q15208 1-465)
binds | Myc-STK38L, transfected in HEK293 cells (from UniProt Q9Y2H1 1-464)
binds | B1
no binding | B2
